Results: PubChem BioAssay AID2685 (National Center for Advancing Translational Sciences (NCATS), 2010)
In all, about 320,000 compounds went through this assay and about 2,100 (0.66%) were called active. The inconclusive results got no clear call from the source; some entries with a clear call stand among them for comparison. Calls come from the whole dose curve; as a rule, active = well fitted inhibition curve with a large enough effect in the signal ratio, with a control signal flat (not every such curve was filed as active); inconclusive = small, poorly fitted or top-dose-only effect, or effect the other way, or a change in a side signal; inactive = flat fitted curve, though single readings scatter; the % refers to the signal ratio. A potency beside an inconclusive call is a rough fit, not a confirmed value.

Test: qHTS Assay for Lipid Storage Modulators in Drosophila S3 Cells
Conditions: BODIPY lipid droplet fluorescence, 18-24 h, cells fed with added oleic acid; lipid storage change, negative = inhibition: at 46.1 µM (top of the series) unless noted
In short: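 Drosophila S3 cells got compounds at several concentrations plus oleic acid (400 uM solution). Laser-scanning cytometry with 488 nm excitation read lipid droplets at 500-530 nm and cells at 575-640 nm. Percent activity was relative to 20 uM Triacsin C.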
% is set by controls: 0 for no effect and ±100 for the full control effect; potency is the fitted concentration of half-maximal effect.

Compound | Potency | lipid storage change, negative = inhibition
Cc1cccc(CNc2ncnc3ccc(-c4ccc5c(c4)OCCO5)cc23)c1 | inconclusive: 14.6 µM [falling, partial curve] | 
N#Cc1c(NC(=O)CN2CCOCC2)oc(-c2ccccc2)c1-c1ccccc1 | inconclusive: 25.9 µM [activator, single point] | 
Cc1csc(NC(=O)CSc2nnc(-c3ccoc3C)n2CCc2ccccc2)n1 |  | inconclusive: 72.2%
COc1ccc(N2CCN(C(=S)Nc3cccc(C)c3C)CC2)cc1 | inconclusive: 9.2 µM [activator, partial curve, poor fit] | 
COc1ccc(S(=O)(=O)N2CCCC(C(=O)N3CCN(C)CC3)C2)cc1Cl (stereo not given) | inconclusive: 0.231 µM [activator, full curve] | 
O=C(COc1ccc(Cl)cc1)Nc1nc(-c2ccc(S(=O)(=O)N3CCOCC3)cc2)cs1 |  | inconclusive: 236%
O=C(CN1CCc2ccccc2C1)Nc1ccccc1C(F)(F)F | inconclusive: 7.31 µM [activator, partial curve] | 
Cc1ccc(N2CC(C(=O)NCc3cccs3)CC2=O)cc1 (stereo not given) |  | inconclusive: 7.86%
CCC1CCc2sc(C(=O)NCc3ccccn3)cc2C1 (stereo not given) | inconclusive: 14.6 µM [activator, partial curve] | 
O=C(c1cccs1)N1CCN(Cc2ccccc2[N+](=O)[O-])CC1 | inconclusive: 10.3 µM [activator, partial curve] | 
COc1ccc(OC)c(S(=O)(=O)Nc2ccc3[nH]c(=O)[nH]c3c2)c1 | inconclusive: 1.46 µM [activator, full curve, poor fit] | 
Cc1ccc(S(=O)(=O)N2CCN(C(=O)CSc3ncn[nH]3)CC2)cc1 | active: 16.4 µM | 
COC(=O)c1cc(O)cc(OC)c1Oc1cc(C)cc(O)c1C(=O)O | inconclusive: 11.6 µM [cytotoxic, partial curve, poor fit] | 
COc1ccc(OC)c(/C=C/C(=O)Oc2ccc(C(C)=O)cc2)c1 |  | inconclusive: 4.68%
COc1ccccc1N1CCN(Cc2cc(OC)c3c(c2)OCO3)CC1 |  | inconclusive: 1.54%
CN(C)S(=O)(=O)c1cc(NC(=O)Cn2ccsc2=N)ccc1Cl |  | inconclusive: -25.1%
CN(C)CC(C)(C)CNC(C(=O)Nc1ccc(Cl)cc1C(F)(F)F)c1ccccc1 (stereo not given) |  | inconclusive: 22.5%
CCOC(=O)C1CCCN(C(=O)CN2C(=O)/C(=C/c3ccc(OC)cc3)Oc3ccccc32)C1 (stereo not given) |  | inconclusive: -10.1%
CC(=O)C1=C(O)C(=O)N(C)C1c1ccccc1[N+](=O)[O-] (stereo not given) |  | inconclusive: -13.3%
COc1ccc(CCNC(=O)C/C(C)=N/NC(=O)COc2ccc(C)cc2Br)cc1OC | inconclusive: 3.66 µM [falling, partial curve, poor fit] | 
O=C(c1ccc(Cl)cc1)N1CCC(O)(CSc2ccc(Cl)cc2Cl)CC1 | inconclusive: 23.1 µM [falling, single point] | 
COC(=O)c1ccc2c(c1)C(=O)/C(=C/c1ccc(O)cc1)O2 | inconclusive: 25.9 µM [activator, single point] | 
COc1ccccc1-c1ocnc1C(=O)N1CCN(S(=O)(=O)c2ccc(NC(C)=O)cc2)CC1 | inconclusive: 2.31 µM [falling, partial curve] | 

Compound | Potency | lipid storage change, negative = inhibition
Cn1ccnc1SCC(=O)Nc1ccc2c(c1)OCO2 |  | inconclusive: -94%
Cc1ccc(SCC(=O)c2sc(-c3ccccc3)nc2C)cc1 |  | inconclusive: -5.69%
C/C=C(\C)CN1CCN(c2ccccc2)CC1 | inconclusive: 0.0052 µM [falling, full curve, poor fit] | 
O=C(Nc1ccc(Cl)c(Cl)c1)N(CCCN1CCOCC1)Cc1cccs1 | inconclusive: 29.1 µM [activator, single point] | 
COc1ccc(C(=O)c2sc(Nc3ccccc3)nc2N)cc1OC |  | inconclusive: -12.8%
Cc1ccc(S(=O)(=O)Nc2ccc(C(=O)N3CCOCC3)cc2)cc1 | inconclusive: 20.6 µM [activator, single point] | 
O=C(NCc1cccs1)c1cc2c(s1)-c1ccccc1OC2 |  | inconclusive: 30.4%
O=C1/C(=C/c2cccs2)CCC/C1=C\c1cccs1 |  | inconclusive: -28.1%
C=CCN1C(=O)C(Cc2ccc(SC(F)F)cc2)SC1=Nc1ccc(C(=O)O)cc1 (stereo not given) |  | inconclusive: -19.2%
COC(=O)c1ccc(N2CCOCC2)c(NC(=O)c2ccc(Br)o2)c1 |  | inconclusive: -3.48%
O=C(CC1CCCC1)Nc1cc(S(=O)(=O)N2CCOCC2)ccc1O | inconclusive: 0.164 µM [falling, partial curve, poor fit] | 
Cc1nn(-c2ccc(N3CCCCC3)nn2)c(C)c1CCC(=O)Nc1ccccc1F | inconclusive: 23.1 µM [falling, single point] | 
Brc1ccc(CSc2nnc3ccccn23)cc1 |  | inconclusive: 6.28%
Cc1ccc(C)c(NC(=O)CSc2nc(N)c(NC(=O)c3cccs3)c(=O)[nH]2)c1 |  | inconclusive: 0.0705%
O=c1[nH]c2ccc(Cl)cc2c(=O)n1Cc1ccco1 | inconclusive: 8.2 µM [activator, partial curve] | 
CN(C(=O)c1ccc(Cl)c(S(=O)(=O)N2CCOCC2)c1)c1ccccc1C(=O)O | active: 0.82 µM | 
C=CCNc1nc(Nc2cc(Cl)ccc2OC)nc(OC)n1 |  | inconclusive: 23%
O=C(CO)N/N=C/c1cccc(Cl)c1Cl |  | inconclusive: -2.06%
O=C(O)/C(=C/c1cccnc1)NC(=O)c1ccccc1 |  | inconclusive: -16.2%
COc1ccc(OC(C)C(=O)N(C)Cc2nc(-c3ccc(C)cc3)no2)cc1 (stereo not given) | inconclusive: 29.1 µM [activator, partial curve, poor fit] | 
O=C(c1cn(-c2ccccc2)nc1-c1ccccc1)N1CCN(c2ccccn2)CC1 | inconclusive: 4.11 µM [activator, partial curve, poor fit] | 
O=C(O)c1cccc(NS(=O)(=O)c2ccc(Cl)c(C(=O)O)c2)c1 | inconclusive: 0.0052 µM [falling, full curve, poor fit] | 

Another view of part of the listing above.
Compound	Potency	lipid storage change, negative = inhibition
Brc1ccc(CSc2nnc3ccccn23)cc1		inconclusive: 6.28%
Cc1ccc(C)c(NC(=O)CSc2nc(N)c(NC(=O)c3cccs3)c(=O)[nH]2)c1		inconclusive: 0.0705%
